PubChem BioAssay AID504774 – Drosophila RNAi Screening Center, 2011

Aim: 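Genes required for cells to withstand methyl methanesulphonate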 (primary screen)
System: Drosophila Kc167 cells
Reagent: long dsRNA against Drosophila genes, about 0.25 µg dsRNA per well
Timing: about 6 days: 3 days knock-down, then 3 days with or without MMS
Conditions: methyl methanesulphonate 0.004% (w/v) for 3 days after knock-down
Measured: 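Viability in wells given MMS, read as ATP luminescence, normalised by quantiles plate by plate and averaged across replicates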
Direction: mean viability with MMS and viability with MMS: higher = more surviving cells after MMS
In all, the deposit lists about 23,000 reagents; this is a random part of those with a known target gene and a result. 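Values are quantile-normalised luminescence on an arbitrary scale; higher means more cells surviving MMS.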 Reagents against one gene are numbered here. A plus sign joins genes that one reagent is predicted to hit. Further read-outs or replicates are left out here.

How did the screen score Orp8 (GeneID 42412) #1?
mean viability with MMS: 3.98e6; viability with MMS, replicate 1: 4.11e6

With Orp8 (GeneID 42412) #2, what does the deposit list?
mean viability with MMS: 3.74e6; viability with MMS, replicate 1: 4.23e6

What did the screen give for side-VII (GeneID 41184)?
mean viability with MMS: 3.81e6; viability with MMS, replicate 1: 4.37e6

For CG30095 (GeneID 246453), what was measured?
mean viability with MMS: 3.56e6; viability with MMS, replicate 1: 3.99e6

Which result is listed for Gli (GeneID 34927)?
mean viability with MMS: 3.63e6; viability with MMS, replicate 1: 4.19e6

What did the screen give for CG18179 (GeneID 39124)?
mean viability with MMS: 3.64e6; viability with MMS, replicate 1: 4.06e6

With CG4956 (GeneID 43114), what does the deposit list?
mean viability with MMS: 3.70e6; viability with MMS, replicate 1: 4.12e6

How did the screen score CG7627 (GeneID 34148)?
mean viability with MMS: 3.73e6; viability with MMS, replicate 1: 4.16e6

For Prx6c + CG12896 + Prx6b, what was measured?
mean viability with MMS: 3.63e6; viability with MMS, replicate 1: 4.04e6

What is on record for CG33301 (GeneID 2768917)?
mean viability with MMS: 3.44e6; viability with MMS, replicate 1: 3.82e6

With CG16786 (GeneID 37856), what was measured?
mean viability with MMS: 3.70e6; viability with MMS, replicate 1: 4.13e6

Which result is listed for Ric (GeneID 36776)?
mean viability with MMS: 3.62e6; viability with MMS, replicate 1: 4.04e6

For CG32681 (GeneID 318151), what was measured?
mean viability with MMS: 3.47e6; viability with MMS, replicate 1: 3.94e6

For AP-2alpha (GeneID 33211), how do the results read?
mean viability with MMS: 3.62e6; viability with MMS, replicate 1: 3.99e6

For CG40948 (retired record) (GeneID 5740550), what was measured?
mean viability with MMS: 2.23e6; viability with MMS, replicate 1: 3.89e6

How did the screen score PyK (GeneID 42620)?
mean viability with MMS: 3.29e6; viability with MMS, replicate 1: 3.67e6

For rdog (GeneID 43450), what was measured?
mean viability with MMS: 3.75e6; viability with MMS, replicate 1: 4.28e6

What is on record for CG13728 (GeneID 39937)?
mean viability with MMS: 3.52e6; viability with MMS, replicate 1: 3.94e6

How did the screen score Pus10 (GeneID 33178)?
mean viability with MMS: 3.42e6; viability with MMS, replicate 1: 3.79e6

For Lrch (GeneID 35041), what does the deposit list?
mean viability with MMS: 3.31e6; viability with MMS, replicate 1: 3.56e6

What did the screen give for CG9839 (GeneID 41055)?
mean viability with MMS: 3.66e6; viability with MMS, replicate 1: 4.14e6

How did the screen score Srp19 (GeneID 38815)?
mean viability with MMS: 3.65e6; viability with MMS, replicate 1: 4.11e6

What did the screen give for Naa20A (GeneID 32962)?
mean viability with MMS: 3.60e6; viability with MMS, replicate 1: 4.23e6

Which result is listed for bsk (GeneID 44801)?
mean viability with MMS: 3.88e6; viability with MMS, replicate 1: 4.24e6
